Assay results taken from patent US20180135060A1 (OURO FINO SAUDE ANIMAL LTDA, published 2018).
No constants are given. Whether binding was seen depends on the method and setting. Some results given as binding are weak or reduced against the parent protein; the word gives no strength.

Molecular target: Rrp42 protein of P. abyssi, characterised individually (Pyrococcus abyssi) (UniProt Q9V118)
Test: gel filtration of Rrp42 alone (self-association)

B1: Rrp42 protein of P. abyssi, characterised individually (protein, Pyrococcus abyssi, UniProt Q9V118 1-274, looked up)
chain: MSDNEIVAGIMRDHIINLLKEGKRIDDRGFEDYRPIEIEVGVIEKAEGSALVKLGSTQVLVGIKTSLGEPFPDTPNMGVMTTNVELVPLASPTFEPGPPDERAIELARVIDRGIRESKALNLEKMVIVPGKIVRVVFIDVHVLDHDGNLMDAIGIAAIAALLNARVPKVRYNEETGEVETLDETEPLPVEKIPVPVTFAKIGNILVVDPSLDEELVMDGKITITTDETGHISAVQKSEGGAFKLEEVMYAVETAFKKAEEIRKLILEAVEKAKQ
In the case of B1, the binding is reported as “binds”.
